No constants are given. Whether binding was seen depends on the method and setting. Binding seen in cells or lysates may run through a third protein.
Target: p53 tumor suppressor protein (human (endogenous in HCT116)) (UniProt P04637)
Assay: co-IP; lysates (about 250 ug protein) of HCT116 p53 WT cells treated with doxorubicin or 5-FU; immunoprecipitation with 2 ug anti-p53 DO-1 overnight at 4°C, Protein A/G Dynabeads, normal mouse IgG as control; Western blot for p53 and JMJD2B; lysis buffer 20 mM Tris-HCl pH 7.5, 150 mM NaCl, 1 mM EDTA, 1 mM EGTA, 1% Triton X-100

Chains of the proteins cited; added tags and fusions are not shown.
UniProt O94953: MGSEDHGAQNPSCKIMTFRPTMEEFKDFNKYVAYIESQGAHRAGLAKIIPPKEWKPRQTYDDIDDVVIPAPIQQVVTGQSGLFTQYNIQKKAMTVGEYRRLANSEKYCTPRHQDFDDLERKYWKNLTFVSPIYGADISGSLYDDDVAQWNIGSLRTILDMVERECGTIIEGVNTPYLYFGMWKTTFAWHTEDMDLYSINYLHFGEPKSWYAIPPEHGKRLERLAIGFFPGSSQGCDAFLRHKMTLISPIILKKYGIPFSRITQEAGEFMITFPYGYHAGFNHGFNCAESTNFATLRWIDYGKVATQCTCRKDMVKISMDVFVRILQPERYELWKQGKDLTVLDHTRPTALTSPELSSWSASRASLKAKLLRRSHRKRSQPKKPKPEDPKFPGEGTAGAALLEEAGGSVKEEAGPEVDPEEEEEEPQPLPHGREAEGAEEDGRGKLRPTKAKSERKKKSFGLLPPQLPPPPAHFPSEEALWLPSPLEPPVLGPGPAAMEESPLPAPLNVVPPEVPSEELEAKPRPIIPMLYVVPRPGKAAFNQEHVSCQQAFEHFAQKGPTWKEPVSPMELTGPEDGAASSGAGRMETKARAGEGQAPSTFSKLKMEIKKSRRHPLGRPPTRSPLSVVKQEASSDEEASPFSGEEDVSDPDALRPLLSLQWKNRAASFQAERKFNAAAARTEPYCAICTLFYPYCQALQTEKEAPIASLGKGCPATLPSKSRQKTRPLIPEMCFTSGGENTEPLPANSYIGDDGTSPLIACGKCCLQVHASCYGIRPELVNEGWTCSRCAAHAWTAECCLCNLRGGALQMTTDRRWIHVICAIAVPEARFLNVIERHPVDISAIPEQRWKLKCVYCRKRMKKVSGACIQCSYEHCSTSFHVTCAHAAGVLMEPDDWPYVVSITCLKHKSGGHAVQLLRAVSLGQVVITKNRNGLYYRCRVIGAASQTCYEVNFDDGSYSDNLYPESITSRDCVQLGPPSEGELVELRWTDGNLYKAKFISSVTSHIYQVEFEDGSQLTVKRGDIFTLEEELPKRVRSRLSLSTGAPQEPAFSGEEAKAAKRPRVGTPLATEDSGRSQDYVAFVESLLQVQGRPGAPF

## JMJD2B/KDM4B (histone demethylase 4B, Jumonji domain-containing protein 2B) (from UniProt O94953 1-1096)
  binding: no binding

From publication PMC5397198
